# PubChem BioAssay AID1224826 | NIAID, 2016
# Screen: 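Regulators of Tlr4 signalling leading to Tnf-alpha expression in macrophages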 (primary screen)
# Cells: RAW264.7 G9 macrophages from mouse bearing reporters for p65 (GFP) and the Tnf promoter (mCherry)
# Reagents: siRNA pool against mouse genes, 100 nM
# Timing: 16 h of LPS stimulation, after 2 days of siRNA transfection
# Conditions: bacterial lipopolysaccharide (Salmonella minnesota R595), 10 ng/ml
# Read-out: 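Nuclear mCherry signal of the Tnf promoter reporter measured by imaging after background removal, scaled to each plate median and turned into robust z-scores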
# Scale: Tnf reporter robust z-score: higher = stronger Tnf promoter reporter signal after LPS
# Hit rule: 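a well counts as active at a score of -1.3 or below (Tlr4 knock-down control median) or above 3 (raised signal); controls and wells holding fewer than 50 cells are excluded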
# Calls: active = Tnf reporter clearly lowered or raised; inactive = no clear change in Tnf reporter
# Shown is a random part of about 17,000 deposited reagents. In the full data, about 1,110 (6.6%) are marked active. 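Active means lowered or raised reporter signal; replicate intensities are raw and not normalised per plate.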 A number with no mark means an inactive call. Not all columns of the deposit are shown.
Tnf reporter robust z-score,fewer than 50 cells in well,Gene
-0.8,enough cells in well,Slc2a5 (GeneID 56485)
1.03,enough cells in well,Strap (GeneID 20901)
-1.11,enough cells in well,Zfp811 (GeneID 240063)
1.73,enough cells in well,Usp27x (GeneID 54651)
-0.42,enough cells in well,Kcna1 (GeneID 16485)
-0.16,enough cells in well,Ube2j1 (GeneID 56228)
-0.37,enough cells in well,Prkx (GeneID 19108)
-0.45,enough cells in well,Nthl1 (GeneID 18207)
-0.47,enough cells in well,Snx8 (GeneID 231834)
0.15,enough cells in well,Plagl2 (GeneID 54711)
,fewer than 50 cells per well; well left out of calls,2010013B10RIK
-0.65,enough cells in well,Brix1 (GeneID 67832)
,fewer than 50 cells per well; well left out of calls,Yju2 (GeneID 72886)
0.8,enough cells in well,Fbxw5 (GeneID 30839)
0.08,enough cells in well,Or52n2c (GeneID 259061)
-0.84,enough cells in well,Pibf1 (GeneID 52023)
0.33,enough cells in well,Aldh5a1 (GeneID 214579)
0.17,enough cells in well,Gclc (GeneID 14629)
-0.19,enough cells in well,Nlrx1 (GeneID 270151)
-1.17,enough cells in well,Myo1b (GeneID 17912)
-0.36,enough cells in well,Pcmtd1 (GeneID 319263)
2.17,enough cells in well,Baz1a (GeneID 217578)
1.31,enough cells in well,Frrs1 (GeneID 20321)
0.38,enough cells in well,Crygd (GeneID 12967)
-0.45,enough cells in well,Cs (GeneID 12974)
1.49,enough cells in well,Tmem63c (GeneID 217733)
0,enough cells in well,Atp6v0a4 (GeneID 140494)
-0.41,enough cells in well,Olfml2b (GeneID 320078)
1.25,enough cells in well,Hdac1 (GeneID 433759)
-0.83,enough cells in well,H2bc9 (GeneID 319182)
-0.02,enough cells in well,Atp6v0e2 (GeneID 76252)
,fewer than 50 cells per well; well left out of calls,Krtap13-20 (GeneID 117172)
-0.24,enough cells in well,Grin3b (GeneID 170483)
,fewer than 50 cells per well; well left out of calls,Timmdc1 (GeneID 76916)
0.23,enough cells in well,Or5d40 (GeneID 258524)
-0.49,enough cells in well,Gnat2 (GeneID 14686)
-0.13,enough cells in well,Usp36 (GeneID 72344)
-0.53,enough cells in well,Gpr34 (GeneID 23890)
1.04,enough cells in well,Plekho1 (GeneID 67220)
1.69,enough cells in well,Ccne1 (GeneID 12447)

A portion from the list above, for reference:
Tnf reporter robust z-score,fewer than 50 cells in well,Gene
-1.11,enough cells in well,Zfp811 (GeneID 240063)
1.73,enough cells in well,Usp27x (GeneID 54651)
